Experimental findings from article PMC3392246 are described below.

Protein sequences, listed by entry. Tags and fused reporters are not part of them.
UniProt O60260: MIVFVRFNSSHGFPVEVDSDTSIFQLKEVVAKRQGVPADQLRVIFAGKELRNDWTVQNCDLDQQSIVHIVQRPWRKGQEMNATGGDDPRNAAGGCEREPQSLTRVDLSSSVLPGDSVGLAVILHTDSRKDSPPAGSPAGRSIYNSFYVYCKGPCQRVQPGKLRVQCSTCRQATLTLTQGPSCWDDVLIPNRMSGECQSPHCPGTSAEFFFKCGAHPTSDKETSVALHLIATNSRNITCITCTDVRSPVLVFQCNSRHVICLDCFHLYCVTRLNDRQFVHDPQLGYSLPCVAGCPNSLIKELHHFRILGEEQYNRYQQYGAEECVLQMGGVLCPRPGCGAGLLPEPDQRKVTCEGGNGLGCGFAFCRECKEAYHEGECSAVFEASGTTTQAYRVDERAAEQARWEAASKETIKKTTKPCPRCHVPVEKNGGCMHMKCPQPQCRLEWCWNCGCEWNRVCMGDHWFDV

No constants are given. Whether binding was seen depends on the method and setting. In cells and extracts the contact can be indirect. Some binding calls cover weakened binding; strength is not graded here. Tags and fused reporters may be left off the sequences shown.

In this experiment the target is 1myc-Parkin (52 kD) (UniProt O60260). The experiment can be described thus: co-IP; COS-7 cells co-transfected with 1myc-Parkin and AU5-ARTS or Flag-Sept4_i1; lysates subjected to IP with anti-ARTS, anti-myc or anti-Parkin antibody, then Western blot; IP lysis buffer 150 mM NaCl, 50 mM Tris-HCl pH 8, 1% NP-40, 0.5% Na-deoxycholate. For orientation: Immunoblotting shows a protein as a band on a membrane.

B1: Flag-Sept4_i1 (protein, UniProt O43236-1 1-478)
chain: MDRSLGWQGNSVPEDRTEAGIKRFLEDTTDDGELSKFVKDFSGNASCHPPEAKTWASRPQVPEPRPQAPDLYDDDLEFRPPSRPQSSDNQQYFCAPAPLSPSARPRSPWGKLDPYDSSEDDKEYVGFATLPNQVHRKSVKKGFDFTLMVAGESGLGKSTLVNSLFLTDLYRDRKLLGAEERIMQTVEITKHAVDIEEKGVRLRLTIVDTPGFGDAVNNTECWKPVAEYIDQQFEQYFRDESGLNRKNIQDNRVHCCLYFISPFGHGLRPLDVEFMKALHQRVNIVPILAKADTLTPPEVDHKKRKIREEIEHFGIKIYQFPDCDSDEDEDFKLQDQALKESIPFAVIGSNTVVEARGRRVRGRLYPWGIVEVENPGHCDFVKLRTMLVRTHMQDLKDVTRETHYENYRAQCIQSMTRLVVKERNRNKLTRESGTDFPIPAVPPGTDPETEKLIREKDEELRRMQEMLHKIQKQMKENY
In the case of B1, the binding entry is on record as “binds”.
